These are yes or no findings as the source states them, for the method shown. Binding seen in cells or lysates may run through a third protein. A yes stands for co-enrichment or nearness to the bait. Other partners may have been found. Sequences can lack the tags named with a protein.
B1: glyoxalase domain-containing protein 4 (GLOD4), endogenous (protein, UniProt Q9HC38 1-313)
chain: MAARRALHFVFKVGNRFQTARFYRDVLGMKVESCSVARLECSGAISAHCSDYTRITEDSFSKPYDGKWSKTMVGFGPEDDHFVAELTYNYGVGDYKLGNDFMGITLASSQAVSNARKLEWPLTEVAEGVFETEAPGGYKFYLQNRSLPQSDPVLKVTLAVSDLQKSLNYWCNLLGMKIYEKDEEKQRALLGYADNQCKLELQGVKGGVDHAAAFGRIAFSCPQKELPDLEDLMKRENQKILTPLVSLDTPGKATVQVVILADPDGHEICFVGDEAFRELSKMDPEGSKLLDDAMAADKSDEWFAKHNKPKASG
B2: tyrosine 3-monooxygenase/tryptophan 5-monooxygenase activation protein Eta (YWHAH), endogenous (protein, UniProt Q04917 1-246)
chain: MGDREQLLQRARLAEQAERYDDMASAMKAVTELNEPLSNEDRNLLSVAYKNVVGARRSSWRVISSIEQKTMADGNEKKLEKVKAYREKIEKELETVCNDVLSLLDKFLIKNCNDFQYESKVFYLKMKGDYYRYLAEVASGEKKNSVVEASEAAYKEAFEISKEQMQPTHPIRLGLALNFSVFYYEIQNAPEQACLLAKQAFDDAIAELDTLNEDSYKDSTLIMQLLRDNLTLWTSDQQDEEAGEGN

Molecular target: T1, His-KHK-A expressed in breast-cancer cells (human) (UniProt P50053)
T1 sequence: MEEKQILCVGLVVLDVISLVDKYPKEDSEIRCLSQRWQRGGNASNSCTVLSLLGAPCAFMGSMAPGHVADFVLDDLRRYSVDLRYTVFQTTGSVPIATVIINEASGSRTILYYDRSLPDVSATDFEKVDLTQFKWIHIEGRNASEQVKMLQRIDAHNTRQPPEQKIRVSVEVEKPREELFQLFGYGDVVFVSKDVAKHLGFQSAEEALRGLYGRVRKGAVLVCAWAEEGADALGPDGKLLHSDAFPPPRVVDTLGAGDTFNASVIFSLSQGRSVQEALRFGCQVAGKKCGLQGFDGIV
Experiment: affinity purification with mass spectrometry; MCF-7 and MDA-MB-231 transfected with His-KHK-A, with or without 5 mM fructose for 8 h; lysates on nickel-NTA beads at 4 °C for 4 h, eluted with 250 mM imidazole, LC-MS/MS

Row | Binder | binding
1 | B1 | binds
2 | B2 | binds
